The experiment concerns the target T1, flightless I (human (endogenous in HaCaT and HFF)) (UniProt Q13045).
T1 sequence: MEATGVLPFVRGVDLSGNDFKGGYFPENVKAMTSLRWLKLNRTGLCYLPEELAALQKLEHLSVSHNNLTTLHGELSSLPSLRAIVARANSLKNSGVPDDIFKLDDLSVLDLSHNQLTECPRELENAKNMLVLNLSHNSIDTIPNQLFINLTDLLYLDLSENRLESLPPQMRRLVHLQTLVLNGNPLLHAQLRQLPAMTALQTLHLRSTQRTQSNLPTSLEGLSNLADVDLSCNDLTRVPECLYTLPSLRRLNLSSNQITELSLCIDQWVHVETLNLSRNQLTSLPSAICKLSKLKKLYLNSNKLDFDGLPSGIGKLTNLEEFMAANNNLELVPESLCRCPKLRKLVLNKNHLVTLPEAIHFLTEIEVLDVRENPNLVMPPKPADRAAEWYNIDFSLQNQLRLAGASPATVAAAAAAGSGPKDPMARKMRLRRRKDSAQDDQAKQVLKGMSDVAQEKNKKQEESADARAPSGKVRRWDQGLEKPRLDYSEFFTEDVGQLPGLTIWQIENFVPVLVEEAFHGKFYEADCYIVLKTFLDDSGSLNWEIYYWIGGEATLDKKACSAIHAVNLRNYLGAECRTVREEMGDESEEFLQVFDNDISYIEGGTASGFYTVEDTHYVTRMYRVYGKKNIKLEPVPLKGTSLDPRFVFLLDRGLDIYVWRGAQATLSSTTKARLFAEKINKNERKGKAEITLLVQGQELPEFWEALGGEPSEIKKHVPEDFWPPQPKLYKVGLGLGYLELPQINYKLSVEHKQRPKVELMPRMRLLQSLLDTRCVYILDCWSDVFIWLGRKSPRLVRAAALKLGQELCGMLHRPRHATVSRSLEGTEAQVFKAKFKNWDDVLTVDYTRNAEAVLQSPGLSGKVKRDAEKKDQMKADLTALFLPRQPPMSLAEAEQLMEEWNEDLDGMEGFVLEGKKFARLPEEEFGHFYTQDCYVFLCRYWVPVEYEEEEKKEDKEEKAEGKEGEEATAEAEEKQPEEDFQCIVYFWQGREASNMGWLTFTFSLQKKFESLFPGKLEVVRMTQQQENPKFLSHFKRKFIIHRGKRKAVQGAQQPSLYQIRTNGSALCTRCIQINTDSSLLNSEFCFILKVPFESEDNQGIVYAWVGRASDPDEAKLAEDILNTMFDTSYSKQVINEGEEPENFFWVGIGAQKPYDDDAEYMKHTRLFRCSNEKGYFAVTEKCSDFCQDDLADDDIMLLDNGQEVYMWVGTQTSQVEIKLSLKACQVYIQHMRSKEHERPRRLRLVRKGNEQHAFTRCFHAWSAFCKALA
Description: co-IP; confluent HaCaTs and HFFs, scratch-wounded, migrated 2.5 h; lysis buffer 50 mM Tris, 1 mM EDTA, 50 mM NaCl, 0.1% Triton X-100; Flii or LRRFIP-1 antibodies with protein G-agarose beads overnight at 4 °C; Western blot with Flii or LRRFIP-1 antibody. In general terms: Immunoblotting shows a protein as a band on a membrane.

No constants are given. Whether binding was seen depends on the method and setting. Binding seen in cells or lysates may run through a third protein. Some binding calls cover weakened binding; strength is not graded here.

B1: Leucine-rich repeat flightless-interacting protein-1 (protein, UniProt Q32MZ4 1-808)
chain: MTSPAAAQSREIDCLSPEAQKLAEARLAAKRAARAEAREIRMKELERQQKEEDSERYSRRSRRNTSASDEDERMSVGSRGSLRVEERPEKDFTEKGSRNMPGLSAATLASLGGTSSRRGSGDTSISIDTEASIREIKELNELKDQIQDVEGKYMQGLKEMKDSLAEVEEKYKKAMVSNAQLDNEKTNFMYQVDTLKDMLLELEEQLAESRRQYEEKNKEFEREKHAHSILQFQFAEVKEALKQREEMLEKHGIILNSEIATNGETSDTLNNVGYQGPTKMTKEELNALKSTGDGTLGRASEVEVKNEIVANVGKREILHNTEKEQHTEDTVKDCVDIEVFPAGENTEDQKSSEDTAPFLGTLAGATYEEQVQSQILESSSLPENTVQVESNEVMGAPDDRTRTPLEPSNCWSDLDGGNHTENVGEAAVTQVEEQAGTVASCPLGHSDDTVYHDDKCMVEVPQELETSTGHSLEKEFTNQEAAEPKEVPAHSTEVGRDHNEEEGEETGLRDEKPIKTEVPGSPAGTEGNCQEATGPSTVDTQNEPLDMKEPDEEKSDQQGEALDSSQKKTKNKKKKNKKKKSPVPVETLKDVKKELTYQNTDLSEIKEEEQVKSTDRKSAVEAQNEVTENPKQKIAAESSENVDCPENPKIKLDGKLDQEGDDVQTAAEEVLADGDTLDFEDDTVQSSGPRAGGEELDEGVAKDNAKIDGATQSSPAEPKSEDADRCTLPEHESPSQDISDACEAESTERCEMSEHPSQTVRKALDSNSLENDDLSAPGREPGHFNPESREDTRGGNEKGKSKEDCTMS
As to B1, the binding result is recorded as “binds”.

The values are drawn from paper PMC6073877.
